Some of the results follow.

The chains behind the UniProt entries cited, without tags or fusion partners.
UniProt Q0JBA9, entry or part of it: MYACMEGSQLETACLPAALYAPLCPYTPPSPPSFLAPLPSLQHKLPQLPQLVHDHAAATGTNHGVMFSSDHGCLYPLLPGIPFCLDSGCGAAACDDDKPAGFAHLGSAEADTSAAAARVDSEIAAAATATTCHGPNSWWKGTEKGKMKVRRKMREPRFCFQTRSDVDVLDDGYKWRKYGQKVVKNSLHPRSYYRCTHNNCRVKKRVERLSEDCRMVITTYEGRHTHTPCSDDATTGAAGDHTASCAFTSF

This assay has as its target OsWRKY34 (Oryza sativa, UniProt Q0JBA9 1-250). As to the kind of experiment: protein-binding microarray (RPBM); PBS, 2% BSA, 51.3 ng/ul salmon testes DNA, 50 uM zinc acetate, 200 nM TF, 25 C, 1 h; high values mean tight binding. As to conditions: protein: recombinant; tags: N-terminal polyhistidine and DsRed monomer fusion (pET32a); label: CyDye5-dUTP incorporated in the synthesized complementary strand; 3' TTTTT single-stranded linker to array surface; dsDNA, one strand shown. In outline:
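Transcription factors were made in E. coli BL21-CodonPlus as N-terminal fusions to a polyhistidine tag and DsRed, then purified on Ni–NTA. After primer extension with Cy5-dUTP and blocking with 2% BSA, a custom Agilent array was exposed for 1 h at 25 °C to 200 nM protein in PBS, 2% BSA, salmon testes DNA and 50 µM zinc acetate. Washed arrays were scanned on an Axon 4000B, and the binding signal is per-feature fluorescence intensity in arbitrary units.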
Consider “ATATGCGGTTCGTTTTGCTTTGTTCTTCCCTTTTTCTTTCCGGAGTCACCTAGTGCAG”, for which the binding signal is 13200 fluorescence intensity (a.u.).
Next, “GCCCAACGTTTGACCGTCCGTCTTATTTAAAAAAATTATGCGGAGTCACCTAGTGCAG”: 8220 fluorescence intensity (a.u.); “TACCCTACTATCATTTGCGATTTGGGATCAGCATCTCCTACGGAGTCACCTAGTGCAG”: 9110 fluorescence intensity (a.u.).
The result for “GATAATCTGTTACTTGTATGGGGCTCAAACTGTTCTCATTCGGAGTCACCTAGTGCAG” reads 10300 fluorescence intensity (a.u.); that for “ATTTTTAAAAAAGAAAAGTGTGTGGGTGTGGGCTATTAATCGGAGTCACCTAGTGCAG”, 11100 fluorescence intensity (a.u.).
The result for “CCCCTTTTCGCGCTATCCTTTTCTTGGTCCCGCACGGCGGCGGAGTCACCTAGTGCAG” reads 9160 fluorescence intensity (a.u.).
On to “CTTTTCGGACACAGATCTTGCTCACGCCGCTAGTGCTTGTCGGAGTCACCTAGTGCAG”, for which the binding signal was 9820 fluorescence intensity (a.u.).
“TCTGCATTGACCATCCTAGTTGGGTTTCTGTTGCTGGTTACGGAGTCACCTAGTGCAG”: the binding signal was 9830 fluorescence intensity (a.u.).
Next, “GGGGTATTTTCTAGTTATCTGAACATGTTATCCCTCTCCTCGGAGTCACCTAGTGCAG”: 8320 fluorescence intensity (a.u.); “CTCCCACCGCCACCGCTCCGCGCCGCCGTCCCCACCTCCGCGGAGTCACCTAGTGCAG”: 8950 fluorescence intensity (a.u.); “GACTCGTGCCGTTCGCCCCGACCCACCACCGCTCTCGATGCGGAGTCACCTAGTGCAG”: 8550 fluorescence intensity (a.u.).
As for “TTCCTGTTCCCGTGTGTTTTCATTGCTCGGCGGCGGGATCCGGAGTCACCTAGTGCAG”, the binding signal was 8810 fluorescence intensity (a.u.).
The result for “TCAAGGGAGATGGAGGGTTGCAGCGGCGGCGGAGGGGCGGCGGAGTCACCTAGTGCAG” reads 12100 fluorescence intensity (a.u.); that for “CAACCCATCTCTACCGTCCGTCTCCATCCGACACCTTCCGCGGAGTCACCTAGTGCAG”, 8160 fluorescence intensity (a.u.).
Next, “TAGAAGCACCTCAAATACCACCATACTTTTTATTTTTCGTCGGAGTCACCTAGTGCAG”: 9260 fluorescence intensity (a.u.).
Next, “CGACGAGCCGCTGCATGCCCTGGGTCCCGTACTAGTACTACGGAGTCACCTAGTGCAG”: 9680 fluorescence intensity (a.u.); “CGGGGATGGAGGTGGTGGTGAGGCTGGCGACGGCGGGCCGCGGAGTCACCTAGTGCAG”: 12100 fluorescence intensity (a.u.); “GTCCCATCTCGCCGAGCGCTGGCCTCACTATCGTCGACTCCGGAGTCACCTAGTGCAG”: 10700 fluorescence intensity (a.u.).
As for “ACAGTAGCAACCCTGTTTTGACTCCTTTTTTGGCTGCCCACGGAGTCACCTAGTGCAG”, the binding signal was 9240 fluorescence intensity (a.u.).
Next, “GGCGCGGGCGGGGTGGTTAGTTTGCGCGCTAATTACAGTTCGGAGTCACCTAGTGCAG”: 12300 fluorescence intensity (a.u.); “ATCAGATGCCCAGCCCGACCACTTAACCGCAACGTCATCTCGGAGTCACCTAGTGCAG”: 9220 fluorescence intensity (a.u.); “ATATACATGTGCATCTCTTGTCCTGTATATATGTCCTTTTCGGAGTCACCTAGTGCAG”: 8130 fluorescence intensity (a.u.).
For “TTCACGCAACTCCATTAAAGTCTAACCATTGACTTTTTTCCGGAGTCACCTAGTGCAG”, the binding signal was 10600 fluorescence intensity (a.u.).
For the sequence “TTGGTTGATTTTGATTGCTTTGCTCCTTTTCTGACTTGCTCGGAGTCACCTAGTGCAG”, the binding signal was 9410 fluorescence intensity (a.u.).
Next, “GAATTCGTGACCTGACTCACTCACATACTATCAAAAATTTCGGAGTCACCTAGTGCAG”: 8290 fluorescence intensity (a.u.); “TTGGGTGGCGTGTCCATGGCCATCATCGCCATGGCCTTGGCGGAGTCACCTAGTGCAG”: 8300 fluorescence intensity (a.u.); “CTTGTATTACACTACATAATACCACCACCTTTTTCCAGCTCGGAGTCACCTAGTGCAG”: 8220 fluorescence intensity (a.u.).
Next, “GCAGTCCAGTCCCTGACCTCTCCCCTATTTCCACTCTCGCCGGAGTCACCTAGTGCAG”: 9560 fluorescence intensity (a.u.).
The result for “AGAGTTGTTAAGTACACATGGCTCACCTTTTTTCAGTTACCGGAGTCACCTAGTGCAG” reads 10700 fluorescence intensity (a.u.).
On to “GTACAGCAGCAGCATCAGCATCAGCATATCTATCTACCTACGGAGTCACCTAGTGCAG”, for which the binding signal is 8430 fluorescence intensity (a.u.).
Consider “CGCCCGCTCGAAACAATCTCCCGCTGCGCTGCGGCGGCGCCGGAGTCACCTAGTGCAG”, for which the binding signal was 8170 fluorescence intensity (a.u.).
Next, “TGTTTTGTTGGACTTTCTTGGTCACCCAGCACGGCAATTTCGGAGTCACCTAGTGCAG”: 9480 fluorescence intensity (a.u.); “TCTCCTTCTTCTTATCTGCTACAGCAATTATATATTTTTCCGGAGTCACCTAGTGCAG”: 8270 fluorescence intensity (a.u.).
The result for “CATGCTTTCACCAGATGGTCCTTTTCATTGATAAATGTAACGGAGTCACCTAGTGCAG” reads 8470 fluorescence intensity (a.u.).
Take “GTGATATGTTATGCTGCTGTACCTTTTTTTTTCGCCCGCACGGAGTCACCTAGTGCAG”: the binding signal is 11400 fluorescence intensity (a.u.).
Next, “ACATGTGGGGCCTATTTATTTCTTTTTTTTTAAAAAAAAACGGAGTCACCTAGTGCAG”: 8480 fluorescence intensity (a.u.).
The result for “TCCCTAAATTTTGCTTATTTTCTTGTATATACTGTTTACACGGAGTCACCTAGTGCAG” reads 11900 fluorescence intensity (a.u.); that for “CCACCACGGACTCCGCCGCCGCTCCCGCCACCGCCACATCCGGAGTCACCTAGTGCAG”, 10600 fluorescence intensity (a.u.).
The result for “CTCTTTTCTTCGATTCTCTTTCGGCTTTGCTTCTTCGGTCCGGAGTCACCTAGTGCAG” reads 12900 fluorescence intensity (a.u.); that for “AGTTCGGGGTGGTTTAAAGTGTAAAAAAATGTTAATAAAACGGAGTCACCTAGTGCAG”, 8870 fluorescence intensity (a.u.).
Regarding “TTAATTTGCTGACATATCTCTTCCGTTCTTGAATATTGATCGGAGTCACCTAGTGCAG”, the binding signal is 9000 fluorescence intensity (a.u.).
Next, “CTCTACTCTCTACTACTACTAGCTTCTGCTGCTTCTTCTCCGGAGTCACCTAGTGCAG”: 8200 fluorescence intensity (a.u.).

These data come from article PMC7819943, “Rice protein-binding microarrays: a tool to detect cis-acting elements near promoter regions in rice”.
